Source: patent US20050090485A1, “7-Arylsulfonamido-2,3,4,5-tetrahydro-1h-benzo'diazepine derivatives with 5ht6 receptor affinity for the reatment of cns disorders” (priority 2002, published 2005)
Some results were stated once for a whole list of compounds, not compound by compound.

Protein sequences, listed by entry. Tags and fused reporters are not part of them.
UniProt P50406, whole entry: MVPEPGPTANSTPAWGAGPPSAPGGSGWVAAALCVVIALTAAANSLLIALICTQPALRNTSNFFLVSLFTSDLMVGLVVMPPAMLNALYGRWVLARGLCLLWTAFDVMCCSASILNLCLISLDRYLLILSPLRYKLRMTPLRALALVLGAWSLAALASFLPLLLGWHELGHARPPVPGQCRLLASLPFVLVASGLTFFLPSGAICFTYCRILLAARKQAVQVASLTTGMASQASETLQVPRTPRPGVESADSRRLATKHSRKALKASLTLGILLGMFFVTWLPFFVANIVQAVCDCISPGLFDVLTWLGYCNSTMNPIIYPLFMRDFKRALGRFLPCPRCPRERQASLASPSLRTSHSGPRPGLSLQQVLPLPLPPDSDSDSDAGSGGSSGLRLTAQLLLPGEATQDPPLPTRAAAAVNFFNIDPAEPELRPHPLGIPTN

Target: T1, human cloned 5-HT6 receptors (Homo sapiens, UniProt P50406)
T1 construct: expressed in transfected cells
Experiment: 5-HT6 receptor affinity, procedures outlined in WO98/27081
Format: binding
Source text: Compounds can be tested following the procedures outlined in WO98/27081.

| Structure (SMILES) | pKi values at human cloned 5-HT6 receptors |
| --- | --- |
| O=S(=O)(Nc1ccc2c(c1)CCNCC2)c1cccc(Cl)c1 [Example E3] | > 8 |
| O=S(=O)(Nc1ccc2c(c1)CCNCC2)c1ccc(Br)s1 [Example E4] | > 8 |
| Cl.O=S(=O)(Nc1ccc2c(c1)CCNCC2)c1ccccc1 [Example E2, 7-Phenylsulfonamido-2,3,4,5-tetrahydro-1H-benzo[d]azepine, hydrochloride] | > 8 |
| O=S(=O)(Nc1cc(Br)c2c(c1)CCNCC2)c1ccccc1 [Example E15] | > 8 |
| Cc1ccc(S(=O)(=O)Nc2ccc3c(c2)CCNCC3)cc1 [Example E5] | > 8 |
| O=S(=O)(Nc1cc(Cl)c2c(c1)CCNCC2)c1ccccc1 [Example E13] | > 8 |
